Only a part is listed here, and it is no random draw. At the low end of the ranking the order means little.
Biological target: T1, ELK4 (UniProt P28324-2)
T1 sequence: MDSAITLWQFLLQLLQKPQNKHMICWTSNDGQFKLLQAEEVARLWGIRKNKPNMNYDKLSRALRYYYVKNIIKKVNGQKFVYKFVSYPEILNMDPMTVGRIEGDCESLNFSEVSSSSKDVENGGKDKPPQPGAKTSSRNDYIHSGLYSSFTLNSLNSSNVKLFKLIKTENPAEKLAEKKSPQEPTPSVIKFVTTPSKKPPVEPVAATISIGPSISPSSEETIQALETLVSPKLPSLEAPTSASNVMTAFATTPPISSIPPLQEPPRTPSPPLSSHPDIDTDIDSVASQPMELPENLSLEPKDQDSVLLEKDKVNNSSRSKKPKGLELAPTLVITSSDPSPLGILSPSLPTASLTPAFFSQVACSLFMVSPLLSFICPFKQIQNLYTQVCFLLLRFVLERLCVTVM
Experiment: DAPPL (digital affinity profiling via proximity ligation, sequencing)
Conditions: 10 mM Tris-HCl pH 7.5, 50 mM NaCl, 1 mM DTT, 4% glycerol, room temperature, 30 min; GST-TFs on glutathione beads, 16-mer random dsDNA library, 0.1% …; high values mean tight binding; double strand, one strand shown; scale: fold enrichment (6-mer frequency, TF over GST control)

Sequence	binding signal
GCTTTT	1.17
ACTATC	1.2
GCCGGA	0.939
ATCGTT	1.12
CGCCGG	0.99
CACACC	0.974
CTTCGT	1.39
AACGGA	0.95
ACACTA	1.16
TATGAT	1.25
ACACTC	1.19
AAGAAG	1.18
ATACGA	1.08
TCAGTT	1.08
ACAGCC	1.04
ACCCGG	1.52
GTCCGG	0.85
ACGTCA	0.946
ATCGCA	1.06
TCCGTT	1.48

Sequence	binding signal
CCTTAG	1.34
TTCACA	1.28
AACTTG	1.11
TGGATC	0.904
CCTTTT	1.58
CAACAC	1.2
ATAAGG	0.923
TCCCGG	1.91
TAAGTT	1.22
GATACA	0.985
CGGAAA	1.55
GGATAC	0.889
TATTGA	1.17
AGGATG	0.922
GCGTAT	0.987
CGGAAC	0.964
CCTCCA	1.47
GTCCTT	1.15
CAGCAT	0.993
AGTGCC	0.971

In another format: results already given.

| Sequence | binding signal |
| --- | --- |
| GATACA | 0.985 |
| CGGAAA | 1.55 |

— publication PMC7862700
